The other results are listed elsewhere or left out. Shown are side measurements of this screen, not its main read-out; they come without a call. Most of these compounds were active or inconclusive in the main read-out, so they are no random draw.
Assay: hepatocyte lipid droplet accumulation inhibitors, confirmation, imaging, AML12 mouse hepatocytes, single concentration, high-content (AID 463183);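 note: cells counted after overnight compound exposure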
Conditions: BODIPY lipid droplet imaging, measured here: cell count, cytotoxicity, at 5.2 µM, droplets induced with 100 µM oleic acid

SMILES	cell count [cells]
COc1ccc(N(Cc2cc(=O)[nH]c3ccccc23)C(C)=O)cc1	1690
O=C(CCNC(=O)C1CCN(S(=O)(=O)c2ccc(F)cc2)CC1)NCc1ccccc1Cl	1630
CCCOc1ccccc1C(=O)N(Cc1ccc(C)o1)C1CCS(=O)(=O)C1 (stereo not given)	1610
COc1ccc(/C=C\C(=O)NCc2ccc3[nH]c(C)cc3c2)cc1OC	1610
COc1ccc(NC(=S)NC(=O)c2ccccc2Cl)cc1	1660
CC(C)(C)NC(=O)CSc1nc2ccc(Nc3nc(N4CCOCC4)nc(N4CCOCC4)n3)cc2s1	1620
Cc1cccc(NC(=O)Cn2cc(C(=O)C3CC3)c3ccccc32)c1	1620
CCC(C)NCCOc1ccc(C(C)(C)c2ccccc2)cc1 (stereo not given)	1590
COc1ccccc1N1CCN(C(=O)CSc2nc3ccccc3nc2N2CCC(C)CC2)CC1	1630
COCCCn1c(SCC(=O)Nc2ccc(NC(=O)c3ccco3)c(OC)c2)nc2ccccc2c1=O	1620
CCOc1ccc(CC(=O)Nc2ccc(NC(=O)c3ccco3)cc2)cc1OCC	1720
COc1ccccc1N1CCN(C(=O)Cn2ncc3c([nH]c4ccccc43)c2=O)CC1	1680
COc1ccc2c(c1)O[C@@H](c1cccc(C(F)(F)F)c1)[C@H](OC(=O)NCCc1ccc(OC)c(OC)c1)C2=O	1570
CCOc1ccc(CCNC(=O)CSc2cc(=O)n(C)c3cc(Cl)ccc23)cc1OCC	1550
CCOc1ccc(CCNC(=O)C2CC=CCC2C(=O)OC(C)C)cc1OCC (stereo not given)	1440
Cc1coc2cc3oc(=O)cc(C)c3cc12	1590
COc1ccc(OC)c(CCNC(=O)C(C)n2nc(C)c3c(C)n(-c4ccc(C)cc4)nc3c2=O)c1 (stereo not given)	1550
Cc1cc(C)cc(NC(=O)N2CCC(C(=O)c3ccc(F)cc3)CC2)c1	1520
CCCCN(CCCNC(=O)Cn1nc(CC)n2c(cc3sc(C)cc32)c1=O)Cc1ccccc1	1620
COc1cc(NC(=O)c2cccs2)c(OC)cc1NC(=O)CCC(=O)Nc1ccc(C)cc1	1610

Three compounds drawn at random from those above, as already listed:
SMILES	cell count [cells]
Cc1cccc(NC(=O)Cn2cc(C(=O)C3CC3)c3ccccc32)c1	1620
COc1ccc(/C=C\C(=O)NCc2ccc3[nH]c(C)cc3c2)cc1OC	1610
Cc1coc2cc3oc(=O)cc(C)c3cc12	1590

The list continues:

SMILES	cell count [cells]
CCC(C)(C)NC(=O)C(c1ccc(OC)cc1)N(Cc1ccccc1)C(=O)CCC(=O)Nc1cc(C)on1 (stereo not given)	1630
CC(C)Oc1ccc(C(=O)OC(C)C(=O)NC2CCCCC2C)cc1 (stereo not given)	1560
Cc1ccc(NC(=O)CN(C)CC(=O)Nc2ccc(N3CCOCC3)cc2)c(C)c1	1570
CCOC(=O)c1c(C)[nH]c(C)c1S(=O)(=O)N1CCN(c2ccc([N+](=O)[O-])cc2)CC1	1640
COc1cccc(CNC(=O)CCNC(=O)C2CCN(S(=O)(=O)c3ccccc3)CC2)c1	1630
Cc1cccc(Nc2ncnc3ccccc23)c1	963
CCC(=O)Nc1c2c(nn1-c1ccc(C)cc1)CS(=O)(=O)C2	1580
CCOc1ccc(CCNC(=O)CCCn2c(=O)c3cccn3c3cccnc32)cc1OCC	1560
COc1ccc(-c2c/c(=N\c3nc(-c4ccccc4)c(C)s3)c3ccccc3o2)cc1O	744
COc1ccc(CC(=O)OCC(=O)N2N=C(c3ccccc3)CC2c2ccc(OC)cc2)cc1 (stereo not given)	1610
Cc1cc(C)cc(NC(=O)CSc2nc3ccccc3nc2N2CCCC2)c1	1590
COc1cc(C(=S)N2CCOCC2)cc(OC)c1OC(=O)c1ccccc1[N+](=O)[O-]	1600
CCOc1ccccc1N=Nc1c(C)[nH]n(-c2ccccc2)c1=O	1590
CCOc1ccc(C(=O)Nc2ccc(NC(=S)NC(=O)CC)cc2)cc1Cl	1570
Cc1ccc(NC(=O)N2CCC(C(=O)c3ccc(F)cc3)CC2)cc1	1710
COc1ccc(-c2csc(NNC3=NCCCCC3)n2)cc1	1580
COc1ccc(C(=O)NC2CCCc3c2cnn3-c2cccc(C)c2C)o1 (stereo not given)	1580
COc1ccc(NC(=O)CSc2nc3ccccc3nc2N2CCCCC2)cc1	1690
CCOC(=O)N1CCN(C(=O)CSCC(=O)Nc2nc(-c3ccc(-c4ccccc4)cc3)cs2)CC1	1470
CCOc1ccc(CCNC(=O)CCC(=O)N2CCSc3ccccc32)cc1OCC	1640
